Data as given in PubChem BioAssay AID1224830 (NIAID, 2016)
The deposit covers about 18,000 reagents; this is an unselected part. In the full data, about 2,900 (16%) were called active. 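Calls are made per well; low scores hint the gene aids the LPS response, high scores that it dampens it.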 Unmarked entries are inactive. Repeated entries: four replicate wells of each siRNA pool.

Purpose: 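Host factors that control LPS-induced TNF expression in human macrophages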 (primary screen)
Cell system: human THP-1 monocytic leukaemia cells, TNF dual-luciferase reporter clone, PMA-differentiated to macrophage-like cells
Reagent: siRNA pool against human genes, 50 nM
Time to read-out: LPS for 4 h, given about 3 days after siRNA transfection
Challenge: bacterial LPS (TLR4 ligand), 10 ng/ml
Detection: 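TNF firefly reporter luminescence divided by renilla, normalised to the plate median, then turned into a robust z-score for each replicate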
Scale: TNF reporter robust z-score: higher = stronger TNF reporter response to LPS
Hit rule: 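Each well counts as active if its z-score is over 2.8 or under -1.5; controls are left without a call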

For VIM (vimentin) [SID315452117], what does the deposit list?
TNF reporter robust z-score: -0.99

For VIM (vimentin) [SID315452117], what does the deposit list?
TNF reporter robust z-score: -1.1

With VIM (vimentin) [SID315452117], what does the deposit list?
TNF reporter robust z-score: -0.13

How did the screen score VIM (vimentin) [SID315452117]?
TNF reporter robust z-score: -0.52

What did the screen give for ITPKB (inositol-trisphosphate 3-kinase B) [SID315449574]?
TNF reporter robust z-score: 0.7

For ITPKB (inositol-trisphosphate 3-kinase B) [SID315449574], what does the deposit list?
TNF reporter robust z-score: 1.21

How did the screen score ITPKB (inositol-trisphosphate 3-kinase B) [SID315449574]?
TNF reporter robust z-score: 3.6 (active)

For ITPKB (inositol-trisphosphate 3-kinase B) [SID315449574], what does the deposit list?
TNF reporter robust z-score: 2.67

Which result is listed for TXN2 (thioredoxin 2) [SID315455492]?
TNF reporter robust z-score: 0.39

With TXN2 (thioredoxin 2) [SID315455492], what was measured?
TNF reporter robust z-score: 0.78

With TXN2 (thioredoxin 2) [SID315455492], how do the results read?
TNF reporter robust z-score: 0.5

Which result is listed for TXN2 (thioredoxin 2) [SID315455492]?
TNF reporter robust z-score: 0.28

Records listed so far whose gene name starts with V or v:
VIM (vimentin) [SID315452117] | TNF reporter robust z-score: -0.99
VIM (vimentin) [SID315452117] | TNF reporter robust z-score: -1.1
VIM (vimentin) [SID315452117] | TNF reporter robust z-score: -0.13
VIM (vimentin) [SID315452117] | TNF reporter robust z-score: -0.52

The results go on.
For TNFRSF14 (TNF receptor superfamily member 14) [SID315452803], what does the deposit list?
TNF reporter robust z-score: -0.34

How did the screen score TNFRSF14 (TNF receptor superfamily member 14) [SID315452803]?
TNF reporter robust z-score: -0.37

For TNFRSF14 (TNF receptor superfamily member 14) [SID315452803], what does the deposit list?
TNF reporter robust z-score: -0.36

What did the screen give for TNFRSF14 (TNF receptor superfamily member 14) [SID315452803]?
TNF reporter robust z-score: 0.08

What did the screen give for GIPR (gastric inhibitory polypeptide receptor) [SID315448897]?
TNF reporter robust z-score: -0.57

How did the screen score GIPR (gastric inhibitory polypeptide receptor) [SID315448897]?
TNF reporter robust z-score: 0.25

What did the screen give for GIPR (gastric inhibitory polypeptide receptor) [SID315448897]?
TNF reporter robust z-score: -0.37

Which result is listed for GIPR (gastric inhibitory polypeptide receptor) [SID315448897]?
TNF reporter robust z-score: -0.31
